# Results: publication doi:10.1101/2023.06.26.546636
# These are yes or no findings as the source states them, for the method shown. Binding seen in cells or lysates may run through a third protein. Binding calls can cover weak binding; strength is not graded here.
# B1: B. fragilis Cmr4 (protein, UniProt A0A9X9NER2 1-279)
# chain: MTTRMYVINTLSNMHVGSGEVNYGVIDNLIQRDSVTNLPNINSSGLKGAIREYFKENEDLVRELFGSAPRDEKTLPGKVRFFEANLLSMPVRSDKVPFLMAISDEVLQELITKMKFFNCEEATQYISHLSTLLDNIKTQAQGTDFAYVFDPLLQGAIIEEVSIRATCPSHIPLQPSLKKLLGDRLVILSHKYFSILSDDNHLPVLSRNNLENGQSANLWYEQVLPRYSRLYFMLMDGNAQSEYLKKFRDTLCTPSTIIQIGANASIGYGYCQISELSPF
# B2: B. fragilis Cmr6 (protein, UniProt A0A2M9V7I0 1-314)
# chain: MPKNYTLQNASNLGWLFYKDYYRQEPNVDFISTQGKESDTTADFFRKTNQRITAYQLNSESPLVAAFNNHFGTPLQLKTIYPGLITGSGLPHQTGSKGEFKLGFQFDYTTGLPYIPGSSIKGTLRSMFPFSLKDKGSTKRILPEYRKERMEYIRDLIIEVTNINEISDTEIQALEYAIFTNSTPSGKTIEFSLEEKDVFYDAFVADSKDGVMLSDDYITPHGENPLKDPKPILFLKIRPDVTINFYFKLCTTHLYKEKVCSSKQIEEIKKQNDFSSSDYKMITAHQKRNLFEKILLCIGIGAKTNIGYGQLKKL
# Target: B. fragilis Cmr3 (Bacteroides fragilis)
# Test: co-purification
row,Binder,binding
1,B1,binds
2,B2,binds
